The values that follow come from US20090142372A1.

Protein sequences, listed by entry. Tags and fused reporters are not part of them. Residues count along the entry.
UniProt P08603, residues 19-1231: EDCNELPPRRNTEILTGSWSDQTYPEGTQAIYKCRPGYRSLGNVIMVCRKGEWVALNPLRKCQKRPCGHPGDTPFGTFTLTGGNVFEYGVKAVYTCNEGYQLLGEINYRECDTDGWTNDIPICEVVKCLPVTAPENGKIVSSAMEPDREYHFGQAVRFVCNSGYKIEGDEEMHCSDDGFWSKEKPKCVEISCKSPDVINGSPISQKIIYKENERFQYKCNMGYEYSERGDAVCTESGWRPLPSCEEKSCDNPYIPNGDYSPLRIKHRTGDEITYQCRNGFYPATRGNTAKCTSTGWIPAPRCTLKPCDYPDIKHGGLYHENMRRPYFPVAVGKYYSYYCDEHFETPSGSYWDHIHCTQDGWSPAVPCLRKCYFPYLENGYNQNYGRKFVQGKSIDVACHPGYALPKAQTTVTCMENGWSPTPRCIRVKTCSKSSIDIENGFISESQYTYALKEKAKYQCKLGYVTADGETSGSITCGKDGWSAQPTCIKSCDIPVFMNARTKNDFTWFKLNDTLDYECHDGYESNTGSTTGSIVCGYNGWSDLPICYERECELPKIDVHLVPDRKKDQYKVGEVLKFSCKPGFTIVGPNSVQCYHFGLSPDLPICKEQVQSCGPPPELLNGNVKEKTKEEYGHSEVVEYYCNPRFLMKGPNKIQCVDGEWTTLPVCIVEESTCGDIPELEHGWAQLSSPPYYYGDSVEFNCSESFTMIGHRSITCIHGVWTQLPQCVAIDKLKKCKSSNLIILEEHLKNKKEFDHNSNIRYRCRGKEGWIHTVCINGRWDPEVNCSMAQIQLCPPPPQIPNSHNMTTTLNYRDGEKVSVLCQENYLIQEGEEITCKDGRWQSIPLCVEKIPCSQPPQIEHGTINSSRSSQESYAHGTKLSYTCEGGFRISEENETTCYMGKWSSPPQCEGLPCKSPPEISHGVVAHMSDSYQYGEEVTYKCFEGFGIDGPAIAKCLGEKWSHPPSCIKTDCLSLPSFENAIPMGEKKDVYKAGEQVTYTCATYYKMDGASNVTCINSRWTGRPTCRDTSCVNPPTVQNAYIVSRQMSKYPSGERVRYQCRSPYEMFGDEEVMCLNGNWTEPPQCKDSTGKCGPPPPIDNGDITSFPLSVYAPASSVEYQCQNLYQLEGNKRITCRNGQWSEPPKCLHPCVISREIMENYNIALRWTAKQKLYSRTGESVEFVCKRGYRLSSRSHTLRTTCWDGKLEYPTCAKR

These are yes or no findings as the source states them, for the method shown. Some entries that bind do so weakly or less than the wild type.

The target of this test is T1, Human bone BSP (human) (UniProt P21815).
T1 sequence (looked up): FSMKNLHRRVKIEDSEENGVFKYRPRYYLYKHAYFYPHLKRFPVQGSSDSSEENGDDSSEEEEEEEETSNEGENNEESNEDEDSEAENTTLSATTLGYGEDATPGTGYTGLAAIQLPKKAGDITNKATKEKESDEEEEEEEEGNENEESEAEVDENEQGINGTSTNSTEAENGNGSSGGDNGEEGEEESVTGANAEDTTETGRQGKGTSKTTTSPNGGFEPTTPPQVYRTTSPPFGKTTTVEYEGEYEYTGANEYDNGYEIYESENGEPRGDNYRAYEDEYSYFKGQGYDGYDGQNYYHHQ
In words: affinity column, one partner coupled to cyanogen bromide-activated Sepharose 4B.

Consider “complement factor H (CFH) (from UniProt P08603 19-1231)”, for which the binding entry is “binds”.
